## Primary screen of a compound library

Protein sequences, listed by entry. Tags and fused reporters are not part of them.
UniProt E9BF75, entry or part of it: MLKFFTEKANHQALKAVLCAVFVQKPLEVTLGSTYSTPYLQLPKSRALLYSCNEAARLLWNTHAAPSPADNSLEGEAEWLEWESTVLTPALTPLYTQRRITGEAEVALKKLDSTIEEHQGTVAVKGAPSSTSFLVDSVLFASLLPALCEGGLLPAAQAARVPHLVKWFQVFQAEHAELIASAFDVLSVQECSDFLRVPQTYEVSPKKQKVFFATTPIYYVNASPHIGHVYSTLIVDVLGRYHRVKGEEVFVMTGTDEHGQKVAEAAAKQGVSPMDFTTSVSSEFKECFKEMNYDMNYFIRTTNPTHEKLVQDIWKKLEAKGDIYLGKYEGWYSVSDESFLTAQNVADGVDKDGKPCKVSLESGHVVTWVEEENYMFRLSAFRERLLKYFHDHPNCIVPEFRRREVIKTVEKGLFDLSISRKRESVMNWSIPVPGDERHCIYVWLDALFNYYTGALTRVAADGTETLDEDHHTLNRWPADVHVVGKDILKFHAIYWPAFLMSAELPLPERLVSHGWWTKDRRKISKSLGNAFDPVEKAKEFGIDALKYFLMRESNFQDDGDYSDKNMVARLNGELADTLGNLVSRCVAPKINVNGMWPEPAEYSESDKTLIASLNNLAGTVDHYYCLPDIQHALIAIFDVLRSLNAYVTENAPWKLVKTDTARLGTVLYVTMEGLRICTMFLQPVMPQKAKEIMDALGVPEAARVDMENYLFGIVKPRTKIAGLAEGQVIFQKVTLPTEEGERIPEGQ

Data taken from ChEMBL document CHEMBL3988442, “University of Dundee, Small-Polar-MMV Screening Library” (2021).

Results are percentages, as filed.
How 0% and 100% were set is not recorded. Most values in the screen are low, and negative values occur.
This is an unselected part of the compounds tested.

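Methionyl-tRNA synthetase (putative), Leishmania donovani (UniProt E9BF75). Primary screen of methionyl-tRNA synthetase; the read-out is not stated. The test concentration is not given. Values are per cent inhibition. Size under these conditions: about 68,000 compounds, about 24 of them at 50% or above in at least one test.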

| Compound | inhibition |
|---|---|
| `Cn1nc(CNC(=O)C2CCN(S(C)(=O)=O)CC2)cc1C1CC1` | 4.507 |
| `CNS(=O)(=O)CC(=O)N1CC2(CCCC2)c2c(F)cccc21` | 21.48 |
| `Cc1oc(-c2nc(C#N)c(NC(C)C)o2)cc1S(=O)(=O)N1CCCCC1` | 11.21 |
| `NC(=O)c1nc2c(s1)CCN(C(=O)Nc1cccc(Cl)c1)CC2` | 4.918 |
| `Cc1nn(C)c2c(NCc3ccncc3)nc(C3CC3)nc12` | -3.226 |
| `CN1CCCC(c2nc3c([nH]2)CC(C)(C)CNC3=O)C1` (configuration not stated) | -0.3745 |
| `Cc1nc(C2CCCN2CCS(C)(=O)=O)no1` (configuration not stated) | 14.75 |
| `CCN(Cc1cccc2c1OCO2)C(=O)Nc1ccccn1` | 23.5 |
| `Cc1n[nH]c(CN2CCN(C(=O)C3CCC3)[C@@H]3CS(=O)(=O)C[C@@H]32)n1` | 15.46 |
| `CC(=O)N1CCC(c2ncc(C(=O)Nc3ccc(F)cc3)c(C)n2)CC1` | 4.07 |
| `CCCc1nc(C(=O)NCCCn2nnc3ccccc32)cs1` | 12.5 |
| `Cc1c(CN2C[C@H](O)[C@@H](N3CCOCC3)C2)[nH]c2ccc(F)cc12` | -0.5376 |
| `COCCN1C[C@@H](C)[C@@]2(COCCN(C(=O)c3ccoc3)C2)C1` | 11.4 |
| `COC(=O)c1cc(NC(=O)NCC2CCS(=O)(=O)C2)ccc1Cl` (configuration not stated) | 3.922 |
| `Cn1nnc2c(N3CC(C(=O)NCCC4=CCCCC4)C3)ncnc21` | 14.37 |
| `COCCCN1CC2(CCC1=O)CCN(Cc1cc(C)no1)CC2` | 10.7 |
| `CC(=O)c1cn(CC(=O)NC(C(=O)O)C(C)C)c2ccccc12` (configuration not stated) | 7.805 |
| `O=C(c1ccccc1Cl)N1CC[C@H](O)[C@@H](N2CCOCC2)CC1` | 14.35 |
| `O=C(Cc1ccc(F)cc1)N1CCCCC1c1ccn2ccnc2n1` (configuration not stated) | 9.932 |
| `Cc1cc(C(=O)NCC2CCCC2)c(C)n1-c1cccnc1` | 7.483 |
| `O=C1[C@H]2CCCC[C@H]2C(=O)N1c1cnn(Cc2cccc(F)c2)c1` | 19.6 |
| `CN1CCCC(c2cccc(-c3cccc(Cl)c3)n2)C1` (configuration not stated) | 5.851 |
| `COc1ccc(CN2CCOC3(CCCN(c4nnc(C)o4)C3)C2)cc1` (configuration not stated) | 16.5 |
| `Cc1ncccc1NC(=O)[C@@H]1C[C@@H]2CCN(Cc3cccs3)C[C@H]2O1` | 14.92 |
| `Cc1ncncc1C(=O)NCCn1nc2ccccn2c1=O` | 18.1 |
| `CCN1CCOC(CNCc2c(Cl)nc3ccccn23)C1` (configuration not stated) | 10.99 |
| `N#CC1(C(=O)N2CCOC(c3ccc(F)cc3)C2)CCCCC1` (configuration not stated) | 12.59 |
| `CCN(Cc1ccccc1Cl)Cn1nc(C)c2c(C)onc2c1=O` | 20.51 |
| `Cc1nc(CN2CCC3(CCCN(C(=O)c4cnccn4)C3)C2)cs1` (configuration not stated) | 12.33 |
| `CCC(=O)N1CCN(c2ccc(C(=O)OC)cc2)CC1C` (configuration not stated) | 15.65 |
| `CCNC(=O)NC[C@H]1COCc2nc3cc(C)ccc3n21` | 8.475 |
| `COCC(=O)N(Cc1cccnc1)CC1CCN(C2CCCC2)CC1` | 12.11 |
| `Cc1c(CN2CCc3[nH]cnc3C2C2CC2)[nH]c2ccc(F)cc12` (configuration not stated) | 15.33 |
| `Cc1cc(-c2ccccc2Cl)nc(N)n1` | 11.25 |
| `O=C(CC1CC1)N1CCN(Cc2cccnc2)c2ncccc2C1` | -1.37 |
| `CC(=O)N1CCCC(c2ncncc2-c2ccncc2)C1` (configuration not stated) | 12.3 |
| `CS(=O)(=O)NC1(CCc2ccc(NC(=O)C3CC3)nc2)CCCCC1` | 1.587 |
| `CC(C)(C)CN1CC(O)CN(C(=O)c2cccc(C(F)(F)F)c2)CC1=O` (configuration not stated) | 13.42 |
| `CC(C)N1CCCCC1c1nc(N(C)C)ncc1I` (configuration not stated) | 6.667 |
| `Cc1cc(C)n(C2CCCN(C(=O)CN(C)C3CC3)C2)n1` (configuration not stated) | 9.22 |
| `CCN(CC)Cc1ccc(CNC(=O)C(C)(C)n2cc(Br)cn2)cc1` | -1.955 |
| `COCCCC1CCCN(Cc2c(C)ccc3ncccc23)C1` (configuration not stated) | 7.627 |
| `CC(=O)N1CCn2cc(CNC(=O)c3cccn3C)nc2C1` | 15.68 |
| `Cc1nn(C)c(C)c1C1CCCN1C(=O)c1ccc(CN(C)C)cc1` (configuration not stated) | 3.492 |
| `Cc1nc(C2CCCN(C(=O)c3cc(Cl)c[nH]3)C2)sc1C` (configuration not stated) | 27.91 |
| `CC[C@@H]1N(Cc2ccsc2)CCC[C@]12CCC(=O)N2C` | -1.684 |
| `COCCN1CCC(CNC(=O)C2(c3cc(C)cc(C)c3)CC2)CC1` | 16.48 |
| `COc1ccccc1OC1CCN(C(=O)c2c[nH]c(=O)[nH]c2=O)CC1` | 18.98 |
| `Cc1ccc(CN2CCC3(CC2)C(c2ccccc2)CC(=O)N3C)o1` (configuration not stated) | 14.47 |
| `Cc1cnc(C)c(-c2cccc(-c3ccn(CCN4CCCC4)n3)c2)n1` | 24.91 |
| `CC(C)CNC(=O)CNc1c(NCc2ccccn2)c(=O)c1=O` | 11.9 |
| `CCNC(=O)N1C[C@@H]2OCC(=O)N(CC3CCCCC3)[C@@H]2C1` | 3.008 |
| `Cc1ccc(C(=O)N2CCn3cnc(COCC4CC4)c3C2)cn1` | 12.77 |
| `CC(C)Oc1cccc(CC(=O)NC2CCN(CC(N)=O)CC2)c1` | 21.31 |
| `O=C(c1cnc(C2CC2)s1)N1CCCC(n2cccn2)C1` (configuration not stated) | 9.804 |
| `CC(C(=O)NCc1ccnc(N2CCOCC2)c1)n1cccn1` (configuration not stated) | 16.39 |
| `O=C(Cc1ccccc1)N1C[C@@H]2OCCN(CC3CCCO3)[C@@H]2C1` (some centres not stated) | 3.125 |
| `Cc1cc(C#N)ccc1S(=O)(=O)N1CCN(C)Cc2ccccc21` | 15.92 |
| `Cc1ccc(-c2noc(C(C)NS(C)(=O)=O)n2)cc1` (configuration not stated) | 1.545 |
| `CC(CNC(=O)c1ccc(C#N)cc1)N1CCc2ccccc21` (configuration not stated) | 4.545 |
| `CC(C)n1ccnc1C1CCCN(c2ccncc2F)C1` (configuration not stated) | 0.5587 |
| `Cc1oncc1C(=O)N[C@@H]1CN(CC2CC2)C[C@@H]2CCCO[C@@H]21` | 15.5 |
| `CC(C)Cc1nc(CN(C)c2cc(C(C)C)nc3ccnn23)no1` | 11.76 |
| `O=C(CN1CCc2cncnc2C1)NC(c1ccccc1)C1CC1` (configuration not stated) | 11.34 |
| `Cc1ccccc1CNC(=O)C1CCN(Cc2nccn2C)CC1` | 27.78 |
| `O=C(O)c1cc(-c2cccnc2)cc(S(=O)(=O)NCc2ccccn2)c1` | 15.53 |
| `CCc1noc(CS(=O)(=O)CC=C(C)C)n1` | 19.93 |
| `CN(C)c1nc2c(c(N(C)Cc3n[nH]c4c3CCCCC4)n1)CCNC2` | 9.719 |
| `CCn1cnnc1C1CCN(C(=O)c2ccc(C(=O)OC)s2)CC1` | 17.41 |
| `CCC(Nc1nc(C)nc2onc(C)c12)c1cccs1` (configuration not stated) | 3.015 |
| `N#Cc1cccc(CN2C(=O)C3(CCNCC3)Nc3ccccc32)c1` | 8.75 |
| `CN(C)Cc1nc(C2(NC(=O)Nc3ccccc3)CCCC2)no1` | 11.68 |
| `CC(C)n1ccc(-c2cc(C(=O)N3CCCC3)c3ccccn23)n1` | -1.684 |
| `CCCN(C)CC1CCN(c2ccc(Br)c(C)n2)C1` (configuration not stated) | 16.03 |
| `CSc1ccccc1C(=O)C1CCCN(Cc2ccccn2)C1` (configuration not stated) | 10.84 |
| `COc1ccccc1CC(C)CC(=O)N(C)Cc1cc(C)on1` (configuration not stated) | 2.514 |
| `CC(C)c1noc(C2CCCN2C(=O)Cc2cn3ccsc3n2)n1` (configuration not stated) | 6.383 |
| `CN(C)CCNC(=O)c1ccc(OC2CCN(C3CCC3)CC2)c(Cl)c1` | 9.253 |
| `CC(C)COc1cncc(N(C)C2CCN(c3ncccn3)CC2)n1` | 10.92 |
| `CC(C)COCC1CN(Cc2ccoc2)Cc2ncn(C)c21` (configuration not stated) | 5.519 |
| `O=C(NCC1CCOCC1)[C@@H]1C[C@@H]2[C@@H](CCN2Cc2nccs2)O1` | 15.06 |
| `CN1CCN(Cc2cccnc2)C(=O)C12CCN(Cc1ccco1)CC2` | 14.01 |
| `Cc1cc(C(=O)N2C[C@@H]3COC[C@]3(c3nnc(C)o3)C2)on1` | 4.839 |
| `Cc1ccc(NCc2cn3c(n2)CN(Cc2ccoc2)CC3)nn1` | 5.263 |
| `Cc1ccc(S(=O)(=O)NC[C@H]2OC[C@@H](NCc3ccccc3)[C@@H]2O)cc1` | 8.475 |
| `CN(C)C(=O)COC1COC2(CCN(CC3CCOCC3)CC2)C1` (configuration not stated) | 7.625 |
| `CC(C)CN1C[C@@H]2OCC(=O)N(Cc3nccn3C)[C@@H]2C1` | 1.695 |

6 of the entries, repeated:

For Cc1nn(C)c(C)c1C1CCCN1C(=O)c1ccc(CN(C)C)cc1 (configuration not stated) the result was 3.492%.
For CC(C)COc1cncc(N(C)C2CCN(c3ncccn3)CC2)n1 the result was 10.92%.
For CC(CNC(=O)c1ccc(C#N)cc1)N1CCc2ccccc21 (configuration not stated) the result was 4.545%.
For CCN(Cc1ccccc1Cl)Cn1nc(C)c2c(C)onc2c1=O the result was 20.51%.
For O=C(c1ccccc1Cl)N1CC[C@H](O)[C@@H](N2CCOCC2)CC1 the result was 14.35%.
For COCCN1CCC(CNC(=O)C2(c3cc(C)cc(C)c3)CC2)CC1 the result was 16.48%.